From PubChem BioAssay AID2551 (National Center for Advancing Translational Sciences (NCATS), 2010)
Hit rate of the full screen: of about 310,000 compounds, about 17,000 (5.5%) were called active. This list was built around the results that the source calls inconclusive (neither active nor inactive); the mix of calls is not that of the screen. The call rests on the fitted dose curve; in most records, active means well fitted inhibition curve with a large enough effect; inconclusive means small, poorly fitted or top-dose-only effect, or effect the other way; inactive means no such curve, though single readings can be large or run the other way. Potencies of inconclusive entries are doubtful fits and often do not repeat.

Chains of the proteins cited; added tags and fusions are not shown. Lines headed by an entry give the natural chain unless they say otherwise; changes in a name come on top.
UniProt P51450: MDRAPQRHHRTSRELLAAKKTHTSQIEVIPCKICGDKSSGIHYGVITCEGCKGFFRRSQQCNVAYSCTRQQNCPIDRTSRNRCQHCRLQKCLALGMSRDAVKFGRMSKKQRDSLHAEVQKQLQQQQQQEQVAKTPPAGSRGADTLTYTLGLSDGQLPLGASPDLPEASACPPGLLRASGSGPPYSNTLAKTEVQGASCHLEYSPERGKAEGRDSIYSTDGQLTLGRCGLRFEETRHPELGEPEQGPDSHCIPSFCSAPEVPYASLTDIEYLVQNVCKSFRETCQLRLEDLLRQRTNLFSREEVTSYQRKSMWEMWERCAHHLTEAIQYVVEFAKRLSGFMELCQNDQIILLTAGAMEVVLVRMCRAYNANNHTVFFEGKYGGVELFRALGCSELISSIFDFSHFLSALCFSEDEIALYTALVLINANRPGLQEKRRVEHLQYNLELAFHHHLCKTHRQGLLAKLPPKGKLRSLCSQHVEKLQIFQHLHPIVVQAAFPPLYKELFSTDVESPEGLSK

biological target: Nuclear receptor ROR-gamma (Mus musculus) (UniProt P51450); assay: qHTS for inhibitors of ROR gamma transcriptional activity; conditions: Drosophila S2 Gal4-RORgamma UAS-luciferase reporter, 20 h; activity change, negative = inhibition: at 53.6 µM (top of the series); further: nearly all actives have a fitted effect of over 60% in size
Procedure, shortened: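 Luminescence from a UAS-regulated Photinus luciferase reporter in stably transfected Drosophila Schneider cells is measured; decreased signal marks ROR gamma inhibition. Fusion expression is induced by 700 uM copper sulfate for 20 hr.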
On the % scale 0 is the no-effect control and ±100 the full control effect; potency means the concentration at half of the fitted maximal effect.

Potency, inconclusive:
O=C(CC1NCCN(Cc2ccccc2)C1=O)Nc1ccc(Cl)cc1 (centres undefined) 10 µM [activator, partial curve, poor fit]
CC(C)(C)NC(=O)NC(=O)COC(=O)c1cccc(NS(=O)(=O)c2ccc(F)c(F)c2)c1 20 µM [activator, partial curve]
COc1ccc(CCC(=O)N2CCN(S(=O)(=O)c3ccc4ccccc4c3)CC2)cc1 17.8 µM [activator, single point]
O=C(Nc1ccc(S(=O)(=O)NCc2ccccc2)cc1)c1ccc(Br)o1 35.5 µM [activator, single point]
CN(Cc1cccs1)C(=O)CSc1nc2ccccc2[nH]1 1.78 µM [activator, full curve, poor fit]
Cc1noc(C)c1S(=O)(=O)N(CC(=O)NC1CCC(C)CC1)c1ccc(C(C)C)cc1 (centres undefined) 7.94 µM [inhibitor, partial curve, poor fit]
COc1cccc(Nc2ncc3nc(C)c(=O)n(C[C@H]4CCCO4)c3n2)c1 15.8 µM [activator, partial curve, poor fit]
C/C=C/c1ccc(OCCCCN2C(=O)NC(C)(C)C2=O)c(OC)c1 12.6 µM [activator, partial curve]
CCOC(=O)N1CCN(c2ccc(C(C)=O)cc2F)CC1C (centres undefined) 12.6 µM [activator, single point]
Cn1c(CSc2nnc(SCc3ccccc3)s2)nc2ccccc21 15.8 µM [inhibitor, single point]
CCOc1cc(CNc2ccc(N3CCN(C(C)=O)CC3)cc2)cc(Br)c1OC 12.6 µM [activator, partial curve]
CCCCOc1ccccc1C1C(C(=O)OC)=C(C)N(C)C(C)=C1C(=O)OC 6.31 µM [activator, full curve]
Cc1ccc(N2CCN(S(=O)(=O)c3ccc(Cl)s3)CC2C)cc1 (centres undefined) 31.6 µM [activator, single point]
CC(C)c1ccc(NC2=NCC(=O)N2Cc2cccs2)cc1 14.1 µM [activator, single point]
COCCn1c(=O)c(CCc2ccccc2)nc2cnc(Oc3cccc(Cl)c3)nc21 12.6 µM [activator, partial curve]
CC(O)(CS(=O)(=O)Cc1ccc(Cl)cc1)C(=O)Nc1cccc(C(F)(F)F)c1 (centres undefined) 7.08 µM [activator, partial curve]
COc1ccc(NC(=S)N2CCN(Cc3cccc(F)c3)CC2)c(OC)c1 35.5 µM [inhibitor, single point]
COc1ccc(C(=O)NC2CCCc3c2cnn3-c2cccc(C)c2C)c(OC)n1 (centres undefined) 3.98 µM [activator, single point]
O=C(NNc1cc(N2CCOCC2)nc(N2CCOCC2)n1)c1ccc([N+](=O)[O-])cc1 11.2 µM [inhibitor, partial curve]
Cc1ccccc1C(=O)N1CCN(c2ccc(NC(=O)c3ccc4c(c3)OCCO4)cc2)CC1 10 µM [activator, partial curve]
COc1ccccc1CNS(=O)(=O)c1ccc(NC(C)=O)cc1 35.5 µM [activator, single point]
COC(=O)Cn1c2ccccc2c2nc(=O)cc(C)n21 20 µM [inhibitor, single point]
O=C(c1cccc(NS(=O)(=O)c2ccc(F)c(F)c2)c1)N1CCN(C(c2ccccc2)c2ccccc2)CC1 35.5 µM [activator, single point]
CCCc1ccc2oc(C(=O)NCCc3cnn(C)c3)c(C)c2c1 0.158 µM [activator, partial curve, poor fit]
COc1cc(/C=N\NC(=O)c2ccc(-c3ccccc3)cc2)cc(Br)c1O 35.5 µM [inhibitor, single point]
CCc1ccc(NS(=O)(=O)c2c(C)nc3sc(CC)nn3c2=O)cc1 15.8 µM [activator, partial curve]
Cc1ccc2nc(-c3ccc(SCC(=O)Nc4ccc5c(c4)OCCO5)nc3)[nH]c2c1 1.26 µM [activator, partial curve]
N/C(=N\NS(=O)(=O)c1cc(C(F)(F)F)cc(C(F)(F)F)c1)c1ccccn1 15.8 µM [inhibitor, single point]
COc1ccc(C(=O)N2CCN(c3ccc([N+](=O)[O-])c(NCCc4ccc(OC)c(OC)c4)c3)CC2)cc1 31.6 µM [inhibitor, single point]
O=C(CN1C(=O)NC2(CCCCCC2)C1=O)c1ccccc1 3.98 µM [activator, full curve, poor fit]
Cn1cc(C(c2ccccn2)c2cn(C)c3ccccc23)c2ccccc21 25.1 µM [inhibitor, partial curve, poor fit]
Cc1ccc(-c2nnc(SCC(=O)Nc3nccs3)n2N)cc1 0.501 µM [inhibitor, full curve, poor fit]

Potency, inactive:
COc1cccc(/C=N/NC(=O)c2nnn(-c3nonc3N)c2C(C)C)c1OCc1ccc(F)cc1
Cc1nc(N2CCN(C)CC2)c2c(C)c(C(=O)Nc3ccc(F)cc3)sc2n1
CCOC(=O)CN1C(=O)S/C(=C/c2ccc(OC)c([N+](=O)[O-])c2)C1=O
c1ccc(C2=Nn3c(Cn4nnc5ccccc54)nnc3SC2)cc1
COc1cccc(CNC(=O)CCC2CCCN(C(=O)Cc3ccccc3F)C2)c1 (centres undefined)
ClCc1csc(N/N=C/c2cccs2)n1
COc1ccc(/C=C(/CC(=O)Nc2ccc(C)cc2)c2nc3ccccc3s2)cc1
COc1ccccc1NC(=S)N(Cc1ccco1)Cc1cc2cc(C)cc(C)c2[nH]c1=O
Cc1ccc(OCCOC(=O)CCc2nc3ccccc3c(=O)[nH]2)cc1
CCOC(=O)/C(=C\C=C1/Sc2cc(OCC)c(OCC)cc2N1CC)C(C)=O
CC(=O)Nc1nnc(-c2ccccn2)o1
O=C(COc1ccc(Br)cc1CO)N1CCCc2ccccc21
COc1ccc(OC)c(N2CC(O)(c3cccs3)[N+]3=C2SCCC3)c1 (centres undefined)
COc1ccc(OCC(=O)NNC(=O)c2ccc(-c3ccccc3)cc2)cc1
CCOC(=O)C1=C(CNCCOc2ccc(OC)cc2)NC(=O)NC1c1ccc2c(c1)OCO2 (centres undefined)
CC(C)C[C@@H](CC(=O)N[C@@H](CCC(=O)O)CC(=O)O)NC(=O)[C@@H]1CNCC[C@H]1NC(=O)C[C@@H](NC(=O)C[C@H](Cc1ccccc1)NC(=O)[C@@H]1CNCC[C@H]1N)C(C)C
COc1ccc(CCNC(=O)CSCc2c(F)cccc2Cl)cc1OC
COc1ccc(Br)cc1CN1CCCCCCC1
O=C(/C=C/c1ccc(Br)o1)Nc1nnc(C2CC2)s1
Nc1nc2nccc(-c3ccc(Cl)cc3)n2n1
C/C(N)=C(/C#N)C(=O)CSc1nnnn1-c1ccc(C)cc1C
CCN(Cc1ccccc1)S(=O)(=O)c1c[nH]c(C(=O)OC)c1
CC(=O)CCc1oc2ccc([N+](=O)[O-])cc2c1-c1ccc(C)o1

Copied from the results shown (six entries):
Potency, inactive:
c1ccc(C2=Nn3c(Cn4nnc5ccccc54)nnc3SC2)cc1
COc1cccc(CNC(=O)CCC2CCCN(C(=O)Cc3ccccc3F)C2)c1 (centres undefined)
ClCc1csc(N/N=C/c2cccs2)n1
COc1ccc(/C=C(/CC(=O)Nc2ccc(C)cc2)c2nc3ccccc3s2)cc1
COc1ccccc1NC(=S)N(Cc1ccco1)Cc1cc2cc(C)cc(C)c2[nH]c1=O
Cc1ccc(OCCOC(=O)CCc2nc3ccccc3c(=O)[nH]2)cc1

Next part:

Potency, active:
O=C(N/N=C\c1ccc([N+](=O)[O-])s1)c1cncc(Br)c1 0.708 µM
Cc1nn(-c2ccccn2)c2c1C(c1ccccc1Cl)C1=C(N2)c2ccccc2C1=O (centres undefined) 2.82 µM
O=C(NNc1nc2cc3c(cc2s1)OCCO3)c1ccccc1 3.98 µM
Cc1cccc(NC(=S)NC2CC3CCCC(C2)N3Cc2ccccc2)c1C (centres undefined) 14.1 µM
Fc1ccc(NC(=S)NC2CCCCC2)c(F)c1F 8.91 µM
Fc1ccc2c(c1)C(c1ccncc1)=NNC(c1ccccc1)=N2 10 µM
CC(C)(C)c1cc(C(=O)/C=C/c2ccc(C(=O)O)cc2)cc(C(C)(C)C)c1 7.08 µM
Cc1nn(-c2ccccc2)c2sc(-c3n[nH]c(=S)o3)cc12 2.82 µM
O=C(Cc1csc(Nc2nc(=S)[nH]c3ccccc23)n1)N1CCN(c2cccc(C(F)(F)F)c2)CC1 0.631 µM
CCN(CC)c1ccc(/C=C2\C(=O)c3ccc(C(=O)O)cc3C2=O)cc1 11.2 µM
CCNC(=S)NNC(=O)c1cc(-c2cccc(OC)c2)nc2ccccc12 2.24 µM
Cc1cc(O)c(Oc2cc(C)cc(O)c2O)c(O)c1 17.8 µM
C/C(Cn1cnc([N+](=O)[O-])n1)=N\NC(=O)c1ccccc1O 12.6 µM
Fc1ccccc1COc1ccc(/C=N/NC(=S)NCc2ccccc2)cc1 0.891 µM
C/C(=N\NC(=S)NC1CCCCC1)c1cccc(Br)c1 2.24 µM
COc1cc(CO)ccc1OCC(=O)N1CCc2ccccc21 2.51 µM
Cc1cc(/C=N/NC(N)=S)c(C)n1-c1ccc(Cl)cc1 0.447 µM
COc1cc(C2C=C(C34CC5CC(CC(C5)C3)C4)NC(=S)N2)cc(OC)c1OC (centres undefined) 1 µM

Activity change, negative = inhibition, inactive:
O=C(N/N=C1/C[C@@H](O)[C@@H](O)[C@@H]2[C@@H]3C(=O)N(c4cccc(Oc5ccccc5)c4)C(=O)[C@H]3CC[C@@H]12)OCc1ccccc1 4.16% [at 10 µM]
